Experimental data from the supplement of paper PMC10849652.
The other results are listed elsewhere or left out.

Sequences of proteins named here, by UniProt entry; tags and fusion partners are left off. A change or cut given only in a name is not applied to a line headed by its entry.
UniProt Q9H467: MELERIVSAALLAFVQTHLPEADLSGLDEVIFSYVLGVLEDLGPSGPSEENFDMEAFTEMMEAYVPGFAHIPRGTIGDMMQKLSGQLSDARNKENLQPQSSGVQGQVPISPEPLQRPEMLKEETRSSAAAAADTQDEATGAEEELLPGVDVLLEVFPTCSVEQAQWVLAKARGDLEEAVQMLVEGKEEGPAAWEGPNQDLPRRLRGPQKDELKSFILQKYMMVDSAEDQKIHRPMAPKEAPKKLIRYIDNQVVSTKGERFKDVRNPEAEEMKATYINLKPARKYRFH
UniProt Q2TBE0: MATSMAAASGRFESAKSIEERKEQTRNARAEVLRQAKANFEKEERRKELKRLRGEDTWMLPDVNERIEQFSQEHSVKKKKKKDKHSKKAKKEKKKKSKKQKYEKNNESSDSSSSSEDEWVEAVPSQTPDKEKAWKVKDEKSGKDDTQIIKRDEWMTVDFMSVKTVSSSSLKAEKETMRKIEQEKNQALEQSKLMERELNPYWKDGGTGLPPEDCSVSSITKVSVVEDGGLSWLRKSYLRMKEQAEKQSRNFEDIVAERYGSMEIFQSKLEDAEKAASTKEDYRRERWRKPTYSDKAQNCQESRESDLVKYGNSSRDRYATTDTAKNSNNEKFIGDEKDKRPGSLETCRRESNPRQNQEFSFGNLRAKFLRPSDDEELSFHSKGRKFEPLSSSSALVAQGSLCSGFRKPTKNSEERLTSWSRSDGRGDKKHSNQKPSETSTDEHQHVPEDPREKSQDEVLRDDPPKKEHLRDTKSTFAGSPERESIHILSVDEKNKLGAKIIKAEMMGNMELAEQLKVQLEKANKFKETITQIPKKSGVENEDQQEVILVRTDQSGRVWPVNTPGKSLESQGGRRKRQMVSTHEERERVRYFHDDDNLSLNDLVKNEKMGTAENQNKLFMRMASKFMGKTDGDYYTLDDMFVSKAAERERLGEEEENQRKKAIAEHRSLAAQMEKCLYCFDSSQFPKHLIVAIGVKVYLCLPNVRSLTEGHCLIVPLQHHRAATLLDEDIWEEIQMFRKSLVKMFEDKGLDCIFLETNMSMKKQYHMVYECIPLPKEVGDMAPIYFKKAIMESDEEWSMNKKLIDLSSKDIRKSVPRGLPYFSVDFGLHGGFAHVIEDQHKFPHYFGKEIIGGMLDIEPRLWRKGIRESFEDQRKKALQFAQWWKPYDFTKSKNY
UniProt Q8TB03: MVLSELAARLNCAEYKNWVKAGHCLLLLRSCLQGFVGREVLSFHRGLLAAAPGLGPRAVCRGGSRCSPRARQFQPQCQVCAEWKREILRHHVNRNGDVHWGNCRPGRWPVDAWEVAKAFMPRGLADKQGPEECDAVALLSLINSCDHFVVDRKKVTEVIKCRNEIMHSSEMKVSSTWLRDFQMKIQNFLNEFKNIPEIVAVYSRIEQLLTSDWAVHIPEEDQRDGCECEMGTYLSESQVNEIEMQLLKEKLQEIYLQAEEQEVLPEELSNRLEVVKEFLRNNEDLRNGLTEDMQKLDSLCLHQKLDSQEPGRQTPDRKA
UniProt O75534: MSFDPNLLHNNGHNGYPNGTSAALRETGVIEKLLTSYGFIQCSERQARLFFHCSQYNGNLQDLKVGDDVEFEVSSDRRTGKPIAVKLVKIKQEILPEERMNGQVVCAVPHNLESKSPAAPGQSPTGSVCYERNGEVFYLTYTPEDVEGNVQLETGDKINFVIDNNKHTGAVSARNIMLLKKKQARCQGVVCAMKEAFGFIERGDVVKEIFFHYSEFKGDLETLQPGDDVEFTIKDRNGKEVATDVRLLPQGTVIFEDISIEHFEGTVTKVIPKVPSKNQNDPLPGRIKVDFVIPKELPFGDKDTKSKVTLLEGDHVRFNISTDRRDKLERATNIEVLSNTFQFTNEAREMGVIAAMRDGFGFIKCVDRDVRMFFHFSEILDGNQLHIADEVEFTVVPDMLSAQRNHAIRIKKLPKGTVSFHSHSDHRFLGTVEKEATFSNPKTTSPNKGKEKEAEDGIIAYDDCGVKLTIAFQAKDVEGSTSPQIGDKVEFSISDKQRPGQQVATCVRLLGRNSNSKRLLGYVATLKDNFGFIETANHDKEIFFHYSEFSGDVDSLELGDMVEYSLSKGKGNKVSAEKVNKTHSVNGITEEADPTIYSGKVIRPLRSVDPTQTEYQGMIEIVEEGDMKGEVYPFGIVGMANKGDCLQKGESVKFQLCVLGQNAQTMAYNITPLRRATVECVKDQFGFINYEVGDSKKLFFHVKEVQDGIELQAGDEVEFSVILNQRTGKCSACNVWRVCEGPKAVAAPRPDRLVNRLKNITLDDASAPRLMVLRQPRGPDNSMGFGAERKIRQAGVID
UniProt Q6UUV9: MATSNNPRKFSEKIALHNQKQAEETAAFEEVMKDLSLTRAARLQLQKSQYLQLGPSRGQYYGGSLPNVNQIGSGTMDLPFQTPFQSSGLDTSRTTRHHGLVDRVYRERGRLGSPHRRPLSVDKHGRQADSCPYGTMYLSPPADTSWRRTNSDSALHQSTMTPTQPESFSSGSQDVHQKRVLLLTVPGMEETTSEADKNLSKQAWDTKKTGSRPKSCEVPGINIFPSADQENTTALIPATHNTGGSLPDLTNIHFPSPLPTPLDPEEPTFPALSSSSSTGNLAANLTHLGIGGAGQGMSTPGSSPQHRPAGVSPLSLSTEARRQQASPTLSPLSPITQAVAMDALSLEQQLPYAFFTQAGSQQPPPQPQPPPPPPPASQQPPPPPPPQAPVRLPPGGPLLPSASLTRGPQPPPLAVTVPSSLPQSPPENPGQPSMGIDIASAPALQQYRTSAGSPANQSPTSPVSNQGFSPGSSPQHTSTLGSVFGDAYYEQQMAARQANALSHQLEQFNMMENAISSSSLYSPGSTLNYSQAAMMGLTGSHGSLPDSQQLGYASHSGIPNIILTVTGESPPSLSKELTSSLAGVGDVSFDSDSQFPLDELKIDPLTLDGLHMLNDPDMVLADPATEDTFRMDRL
UniProt Q14894: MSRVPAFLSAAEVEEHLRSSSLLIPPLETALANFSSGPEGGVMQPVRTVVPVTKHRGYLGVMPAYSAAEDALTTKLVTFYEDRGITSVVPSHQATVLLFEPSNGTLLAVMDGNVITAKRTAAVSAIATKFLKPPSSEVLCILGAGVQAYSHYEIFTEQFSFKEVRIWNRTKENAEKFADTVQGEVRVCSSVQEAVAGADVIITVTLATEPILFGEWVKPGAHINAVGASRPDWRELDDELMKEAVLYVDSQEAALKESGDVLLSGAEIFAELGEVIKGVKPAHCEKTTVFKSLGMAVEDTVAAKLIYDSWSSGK
UniProt P49447: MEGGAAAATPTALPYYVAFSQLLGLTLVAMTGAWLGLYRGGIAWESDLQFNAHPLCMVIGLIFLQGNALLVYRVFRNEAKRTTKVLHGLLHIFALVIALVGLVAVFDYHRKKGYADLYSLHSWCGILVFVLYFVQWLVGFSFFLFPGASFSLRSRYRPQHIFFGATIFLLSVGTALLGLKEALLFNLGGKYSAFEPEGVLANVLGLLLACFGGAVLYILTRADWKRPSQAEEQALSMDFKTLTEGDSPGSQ
UniProt Q6UUV7: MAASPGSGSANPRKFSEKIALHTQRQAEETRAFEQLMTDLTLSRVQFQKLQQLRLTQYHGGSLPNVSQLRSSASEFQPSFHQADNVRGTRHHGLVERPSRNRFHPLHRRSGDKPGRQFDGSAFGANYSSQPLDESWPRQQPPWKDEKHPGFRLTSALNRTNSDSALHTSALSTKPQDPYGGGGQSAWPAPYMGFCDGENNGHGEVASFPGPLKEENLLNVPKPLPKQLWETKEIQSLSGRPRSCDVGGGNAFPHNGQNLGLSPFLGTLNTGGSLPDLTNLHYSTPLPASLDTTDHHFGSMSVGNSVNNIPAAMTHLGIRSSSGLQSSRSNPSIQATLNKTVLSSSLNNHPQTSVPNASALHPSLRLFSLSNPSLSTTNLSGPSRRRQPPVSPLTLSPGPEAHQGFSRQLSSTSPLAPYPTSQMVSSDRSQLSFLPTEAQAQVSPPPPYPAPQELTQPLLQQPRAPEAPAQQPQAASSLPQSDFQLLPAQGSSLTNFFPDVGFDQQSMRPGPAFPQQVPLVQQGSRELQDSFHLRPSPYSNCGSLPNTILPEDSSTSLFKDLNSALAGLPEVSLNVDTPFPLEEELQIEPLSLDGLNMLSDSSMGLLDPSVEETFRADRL
UniProt Q9HCP0: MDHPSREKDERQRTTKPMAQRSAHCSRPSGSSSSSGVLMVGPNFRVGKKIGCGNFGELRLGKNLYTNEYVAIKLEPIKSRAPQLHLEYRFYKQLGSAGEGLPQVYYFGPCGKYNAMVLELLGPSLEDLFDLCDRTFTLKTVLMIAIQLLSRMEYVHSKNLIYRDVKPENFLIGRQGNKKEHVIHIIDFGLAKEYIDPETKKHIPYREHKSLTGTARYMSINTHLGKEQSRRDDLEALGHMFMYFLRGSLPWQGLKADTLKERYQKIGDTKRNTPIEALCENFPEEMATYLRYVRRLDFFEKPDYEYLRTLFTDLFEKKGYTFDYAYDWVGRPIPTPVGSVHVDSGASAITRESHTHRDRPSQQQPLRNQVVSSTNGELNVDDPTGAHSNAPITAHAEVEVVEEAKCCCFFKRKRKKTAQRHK
UniProt P43155: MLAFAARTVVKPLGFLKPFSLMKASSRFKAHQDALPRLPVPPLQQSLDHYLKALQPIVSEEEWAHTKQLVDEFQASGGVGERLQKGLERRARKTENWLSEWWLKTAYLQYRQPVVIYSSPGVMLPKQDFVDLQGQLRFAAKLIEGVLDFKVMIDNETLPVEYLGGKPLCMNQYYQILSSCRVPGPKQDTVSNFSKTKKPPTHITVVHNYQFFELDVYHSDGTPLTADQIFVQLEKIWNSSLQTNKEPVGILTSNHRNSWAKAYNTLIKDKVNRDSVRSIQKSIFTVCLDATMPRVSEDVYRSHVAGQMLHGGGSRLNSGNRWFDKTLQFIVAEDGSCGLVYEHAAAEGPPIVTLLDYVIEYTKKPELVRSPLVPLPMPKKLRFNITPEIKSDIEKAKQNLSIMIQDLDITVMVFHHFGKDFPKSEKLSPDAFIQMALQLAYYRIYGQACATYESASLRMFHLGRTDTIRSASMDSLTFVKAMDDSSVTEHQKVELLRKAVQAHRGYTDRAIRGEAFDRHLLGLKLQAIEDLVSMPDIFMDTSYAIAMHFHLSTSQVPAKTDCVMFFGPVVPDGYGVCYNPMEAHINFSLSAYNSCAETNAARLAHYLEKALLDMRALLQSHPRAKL
UniProt Q7L1T6: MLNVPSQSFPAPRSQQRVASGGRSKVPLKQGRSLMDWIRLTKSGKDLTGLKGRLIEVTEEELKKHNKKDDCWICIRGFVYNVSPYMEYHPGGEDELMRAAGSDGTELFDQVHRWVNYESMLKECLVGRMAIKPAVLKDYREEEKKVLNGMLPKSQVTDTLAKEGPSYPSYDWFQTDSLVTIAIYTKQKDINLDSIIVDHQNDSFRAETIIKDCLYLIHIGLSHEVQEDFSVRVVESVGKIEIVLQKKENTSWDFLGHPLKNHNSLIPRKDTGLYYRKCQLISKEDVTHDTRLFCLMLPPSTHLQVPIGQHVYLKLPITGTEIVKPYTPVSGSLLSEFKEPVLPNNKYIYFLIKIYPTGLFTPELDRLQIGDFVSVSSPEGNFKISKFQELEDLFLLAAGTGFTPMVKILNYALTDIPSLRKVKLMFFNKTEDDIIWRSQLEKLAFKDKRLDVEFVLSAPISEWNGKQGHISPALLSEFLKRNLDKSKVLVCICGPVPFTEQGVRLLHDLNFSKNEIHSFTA
UniProt P08574: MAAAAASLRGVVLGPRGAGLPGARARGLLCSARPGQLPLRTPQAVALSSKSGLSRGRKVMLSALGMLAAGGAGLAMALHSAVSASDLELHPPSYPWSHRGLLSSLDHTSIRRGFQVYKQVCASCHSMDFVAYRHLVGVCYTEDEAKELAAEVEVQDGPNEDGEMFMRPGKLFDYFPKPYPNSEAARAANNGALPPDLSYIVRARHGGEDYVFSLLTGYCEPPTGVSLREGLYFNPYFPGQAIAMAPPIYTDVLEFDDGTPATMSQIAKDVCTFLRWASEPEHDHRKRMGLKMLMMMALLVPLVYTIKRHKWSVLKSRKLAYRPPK
UniProt Q03060: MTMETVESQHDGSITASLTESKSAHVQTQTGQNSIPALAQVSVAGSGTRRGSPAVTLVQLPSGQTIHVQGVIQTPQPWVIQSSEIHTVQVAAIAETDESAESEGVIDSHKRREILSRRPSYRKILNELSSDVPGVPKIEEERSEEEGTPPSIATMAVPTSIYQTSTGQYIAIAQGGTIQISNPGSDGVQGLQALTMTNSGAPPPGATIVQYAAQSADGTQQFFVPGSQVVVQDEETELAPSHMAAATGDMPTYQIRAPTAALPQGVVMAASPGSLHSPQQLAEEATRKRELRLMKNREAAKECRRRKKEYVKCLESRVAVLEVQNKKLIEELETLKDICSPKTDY

Key:
Experiment in all cases: log2 fold change, soluble protein after heating vs DMSO (PISA); higher = thermal stabilisation; K562 lysate, 10 uM; active = over 0.2 and 3.5 SD of the protein, either way, in both replicates (recomputed)
ibrutinib = compound: C=CC(=O)N1CCC[C@@H](n2nc(-c3ccc(Oc4ccccc4)cc3)c3c(N)ncnc32)C1 [ibrutinib]
Procedure, shortened: (§1)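 Log-two fold change in thermal stability relative to solvent controls is reported from duplicates. For each sample, crude K562 extract from dounce-homogenised pellets in PBS pH 7.4 with 1 mM MgCl2, at 1 mg/mL protein, was treated with 10 μM compound for 30 min. Aliquots heated for 3 min across 48°C-58°C were pooled, brought to 0.5% NP-40 at 4°C and cleared at 21,000xg for 90 min. The supernatant was quantified by TMTpro 16plex LC-MS/MS with channel sums equalised.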

[1] = compound: CC(=O)c1cnc2ccc(-c3cc(Cl)c(O)c(Cl)c3)nc2c1N[C@H]1CC[C@H](CN(C)C)CC1
Procedure, shortened: as §1

ralimetinib = compound: CC(C)(C)Cn1c(N)nc2ccc(-c3[nH]c(C(C)(C)C)nc3-c3ccc(F)cc3)nc21 [ralimetinib]
Procedure, shortened: as §1

[2] = compound: CC(C)(O)CC(=O)NCCn1ccc2ncnc(Nc3ccc(Oc4cccc(C(F)(F)F)c4)c(Cl)c3)c21
Procedure, shortened: as §1

[3] = compound: CC(C)C1=C2N=C(C=C(N2N=C1)NCC3=CC=CC=C3)NCCCCCCN
Procedure, shortened: as §1

[4] = compound: CC1=C(C(CC(=O)N1)C2=CC=C(C=C2)C(F)(F)F)C(=O)NC3=C(C=C4C(=C3)C=NN4)F
Procedure, shortened: as §1

[5] = compound: CC1=C(C2=C(C=C1)C(=O)C3=CC=CC=C3N2CCCN)C
Procedure, shortened: as §1

[6] = compound: CC1=C(C=C(C=C1)NC(=O)C2=CC(=CC=C2)C(C)(C)C#N)NC3=CC4=C(C=C3)N=CN(C4=O)C
Procedure, shortened: as §1

[7] = compound: CC1=C(C=C(C=C1)NC(=O)C2=CC(=CC=C2)N(C)C)NC(=O)C3=CC=C(C=C3)O
Procedure, shortened: as §1

[8] = compound: CC1=CC=C(C=C1)SC2=C3C=C(SC3=CN=C2)C(=O)N
Procedure, shortened: as §1

Measured: log2 fold change

CUL5 (UniProt Q93034)
inactive: ibrutinib -0.001 | [1] -0.008 | ralimetinib 0.004 | [2] -0.027 | [3] -0.004 | [4] -0.02 | [5] -0.007 | [6] 0.004 | [7] -0.004 | [8] 0.007

CYBA (UniProt P13498)
inactive: ibrutinib 0.051 | [1] 0.02 | ralimetinib -0.007 | [2] -0.081 | [3] 0.08 | [4] -0.006 | [5] 0.016 | [6] -0.011 | [7] 0.026 | [8] -0.008

CTBS (UniProt Q01459)
inactive: ibrutinib 0.078 | [1] -0.023 | ralimetinib 0.011 | [2] -0.024 | [3] 0.007 | [4] 0.033 | [5] -0.016 | [6] 0.019 | [7] -0.039 | [8] -0.007

CTSC (UniProt P53634)
inactive: ibrutinib -0.073 | [1] 0.019 | ralimetinib -0.04 | [2] 0.051 | [3] -0.014 | [4] -0.01 | [5] -0.018 | [6] 0.008 | [7] -0.007 | [8] 0.001

CUEDC2 (UniProt Q9H467)
inactive: ibrutinib 0.056 | [1] 0.044 | ralimetinib 0.001 | [2] -0.032 | [3] 0.026 | [4] -0.027 | [5] -0.014 | [6] 0.052 | [7] 0.018 | [8] -0.082

CWF19L2 (UniProt Q2TBE0)
inactive: ibrutinib 0.069 | [1] 0.21 | ralimetinib 0.032 | [2] -0.033 | [3] 0.005 | [4] 0.011 | [5] -0.019 | [6] 0.031 | [7] 0.022 | [8] 0.114

Reprinted at random: 2 records from the list, in no set order.
CTBS (UniProt Q01459)
inactive: ibrutinib 0.078 | [1] -0.023 | ralimetinib 0.011 | [2] -0.024 | [3] 0.007 | [4] 0.033 | [5] -0.016 | [6] 0.019 | [7] -0.039 | [8] -0.007

CWF19L2 (UniProt Q2TBE0)
inactive: ibrutinib 0.069 | [1] 0.21 | ralimetinib 0.032 | [2] -0.033 | [3] 0.005 | [4] 0.011 | [5] -0.019 | [6] 0.031 | [7] 0.022 | [8] 0.114

The list continues.

CXorf38 (UniProt Q8TB03)
inactive: ibrutinib 0.054 | [1] 0.015 | ralimetinib -0.008 | [2] -0.007 | [3] 0.062 | [4] -0.095 | [5] 0.016 | [6] -0.002 | [7] -0.015 | [8] 0.025

CXorf56 (UniProt Q9H5V9)
inactive: ibrutinib 0.002 | [1] -0.024 | ralimetinib 0.012 | [2] 0.003 | [3] 0.007 | [4] 0.026 | [5] -0.054 | [6] 0.014 | [7] -0.005 | [8] 0.008

CSDE1 isoform 4 (UniProt O75534)
inactive: ibrutinib -0.007 | [1] -0.003 | ralimetinib 0.017 | [2] 0.03 | [3] 0.003 | [4] -0.013 | [5] 0.004 | [6] -0.022 | [7] 0.012 | [8] 0.009

CRTC1 (UniProt Q6UUV9)
inactive: ibrutinib 0.091 | [1] 0.072 | ralimetinib -0.083 | [2] -0.061 | [3] -0.007 | [5] -0.11 | [6] -0.008 | [7] 0.01 | [8] -0.069

CRYM (UniProt Q14894)
inactive: ibrutinib 0.013 | [1] 0.052 | ralimetinib -0.235 | [2] -0.203 | [6] 0.136 | [7] 0.12 | [8] 0.063

CST4 (UniProt P01036)
inactive: ibrutinib 0.18 | [1] -0.337 | ralimetinib -0.008 | [2] 0.611 | [3] 0.847 | [5] 0.227 | [7] -0.152 | [8] -0.097

CRCP (UniProt O75575)
inactive: ibrutinib 0.032 | [1] 0.045 | ralimetinib 0.014 | [2] -0.013 | [3] -0.095 | [4] -0.111 | [6] -0.07 | [7] -0.086 | [8] -0.001

CREB3L2 (UniProt Q70SY1)
inactive: ibrutinib -0.029 | [1] 0.002 | ralimetinib -0.133 | [2] -0.061 | [3] -0.031 | [4] 0.102 | [5] -0.135 | [7] 0.061 | [8] -0.148

CYB561 (UniProt P49447)
inactive: ibrutinib 0.161 | [1] -0.099 | ralimetinib -0.15 | [2] 0.031 | [3] 0.137 | [5] -0.037 | [6] 0.19 | [7] -0.017 | [8] -0.035

CRELD1 isoform 2 (UniProt Q96HD1)
inactive: ibrutinib 0.062 | [1] -0.033 | ralimetinib -0.006 | [2] -0.061 | [3] -0.064 | [4] -0.03 | [5] -0.039 | [7] -0.035 | [8] 0.017

CRTC3 (UniProt Q6UUV7)
inactive: ibrutinib -0.057 | ralimetinib 0.093 | [2] -0.05 | [3] 0.01 | [5] -0.008 | [6] -0.011 | [7] -0.029

CSNK1G1 (UniProt Q9HCP0)
inactive: ibrutinib -0.019 | [1] 0.527 | [3] 0.005 | [5] -0.091 | [8] 0.39

CUL9 (UniProt Q8IWT3)
inactive: ibrutinib -0.064 | [1] 0.048 | [3] 0.07 | [4] -0.028 | [6] 0.221 | [8] 0.067

CRAT (UniProt P43155)
inactive: ibrutinib 0.001 | [1] -0.008 | ralimetinib 0.008 | [2] 0.012 | [3] 0.001 | [5] -0.053 | [6] -0.246 | [7] -0.039 | [8] -0.081

CREB1 (UniProt P16220)
inactive: ibrutinib -0.05 | [1] -0.035 | ralimetinib -0.03 | [2] 0.049 | [3] -0.064 | [4] -0.004 | [5] -0.017 | [6] -0.031 | [7] -0.013 | [8] 0

CROCC2 (UniProt H7BZ55)
inactive: ibrutinib 0.228 | [1] -0.021 | [3] -0.06 | [5] -0.109 | [6] 0.086 | [8] -0.011

CYBRD1 (UniProt Q53TN4)
inactive: ibrutinib 0.059 | [1] -0.02 | [3] -0.018 | [5] -0.06 | [6] 0.01 | [8] -0.006

CS (UniProt F8VU34)
inactive: ibrutinib 0.03 | [1] -0.245 | ralimetinib -0.158 | [2] -0.018 | [3] -0.071 | [5] -0.275 | [7] 0.044 | [8] -0.008

CROCC (UniProt Q5TZA2)
inactive: ibrutinib -0.013 | [1] 0.099 | ralimetinib 0.006 | [2] -0.03 | [3] -0.083 | [4] -0.064 | [5] -0.075 | [6] 0.176 | [7] -0.057 | [8] 0.019

CTC1 (UniProt Q2NKJ3)
inactive: ibrutinib -0.069 | ralimetinib -0.047 | [2] 0.005 | [3] 0.106 | [4] 0.053 | [5] -0.084 | [6] -0.016 | [7] 0.045

CWC25 (UniProt Q9NXE8)
inactive: ibrutinib 0.145 | [1] 0.011 | [4] 0.173 | [6] 0.424 | [8] 0.015

CYB5R4 (UniProt Q7L1T6)
inactive: ibrutinib -0.018 | [1] 0.035 | ralimetinib 0.033 | [2] -0.075 | [3] 0.094 | [4] -0.064 | [5] 0.009 | [6] 0.007 | [7] 0.029 | [8] -0.053

CYC1 (UniProt P08574)
inactive: ibrutinib 0.079 | [1] 0.047 | ralimetinib 0.012 | [2] -0.01 | [3] -0.028 | [4] -0.051 | [5] 0.065 | [6] -0.044 | [7] -0.058 | [8] 0.096

CREM isoform 1 (UniProt Q03060)
inactive: ibrutinib 0.032 | [1] -0.001 | ralimetinib -0.049 | [2] -0.075 | [4] -0.007 | [5] -0.07 | [6] 0.034 | [7] 0.032 | [8] -0.037

CRLS1 (UniProt Q9UJA2)
inactive: ibrutinib -0.023 | [1] -0.008 | ralimetinib 0.079 | [2] -0.027 | [3] -0.102 | [4] -0.049 | [6] 0.066 | [7] 0.058 | [8] 0.048

CTTNBP2NL (UniProt Q9P2B4)
inactive: ibrutinib -0.017 | [1] 0.076 | ralimetinib -0.039 | [2] -0.037 | [4] -0.005 | [6] 0.015 | [7] 0.021 | [8] -0.024
